## Primary screen of a compound library

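Whole-cell assay for inhibitors of Mycobacterium tuberculosis growth, labelled Cornell in the record; the read-out is not stated. The concentration is filed as 10 mM, unlikely as a test dose, so the dose is not known. The record gives no direction; compounds strong in two other growth screens of this library score well above the rest, so higher reads as stronger inhibition. Of about 53,000 compounds tested this way, about 900 (1.7%) reached 50% or more in at least one test.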

Each number is a percent effect as filed.
The record does not define 0% and 100%; most values in the screen are far below 50% and negative numbers occur (in some assays of this library far below -100).
Compounds were drawn at random from those tested, without regard to their results.

| # | structure | effect |
|---|---|---|
| 1 | `Cc1ccc(N2CC[C@H](OCC3CC3)[C@@H]2Cc2ccncc2)nn1` | -8.88 |
| 2 | `COc1cccc2c1ccn2CCC(=O)Nc1c2c(nn1C)CSC2` | 21.24 |
| 3 | `COc1cc2c(cc1CNC(=O)C(C)n1ccnc1C(C)C)OCCO2` (centres undefined) | -18.47 |
| 4 | `O=C(NCCN1CCCCC1)c1ccoc1` | -8.814 |
| 5 | `Cc1ccc(C)c(C(NC2CCCC2)c2cccnc2)c1` (centres undefined) | 7.804 |
| 6 | `O=S(=O)(NCCCn1cncn1)c1ccc2c(c1)OCCO2` | -20.65 |
| 7 | `c1cnn(CC2CN(c3ncnc4[nH]ccc34)CCO2)c1` (centres undefined) | -12.65 |
| 8 | `Cc1cccc(C(=O)N2CC(Cc3nccc4ccn(C)c34)C2)n1` | -11.23 |
| 9 | `Cc1nc(N2CCN(C(=O)NCc3cscn3)CC2)sc1C` | 11.02 |
| 10 | `O=C(NS(=O)(=O)c1cc(Cl)ccc1Cl)c1cccc2c1OCCO2` | 9.678 |
| 11 | `Cc1cccc(C(=O)NCc2ccccc2)n1` | 3.449 |
| 12 | `O=C(Nc1cnc2n1CCCC2)C1CCNCC1` | -23.76 |
| 13 | `COCCN(C)C(=O)c1cc2c(s1)CCN2C(=O)C1CC1` | -111.5 |
| 14 | `Cc1cc(C(=O)NCC(Cc2cccc(F)c2)N2CCCCC2=O)no1` (centres undefined) | -10.99 |
| 15 | `CC(C)c1nc(CN2CCC(CO)CC2)cs1` | -73.95 |
| 16 | `CNc1cncc(C2CCCN2C(=O)CCn2ccnc2C(C)C)n1` (centres undefined) | 9.232 |
| 17 | `O=C(Nc1ccc(-n2cncn2)nc1)N(CC1CCOC1)C1CC1` (centres undefined) | 6.745 |
| 18 | `N#Cc1ccc(N2CCCC3(CCN(c4cncnc4)C3=O)C2)nc1.O=C(O)C(F)(F)F` (centres undefined) | -3.631 |
| 19 | `Cc1nc(Nc2nnc(C)s2)cc(C2CCCN2C2CCCC2)n1` (centres undefined) | -1.715 |
| 20 | `COc1cccc(-c2noc3c2CN(c2nc(C)ncc2C)CC3)c1` | 77.03 |
| 21 | `CC(C)CNC(=O)C[S+]([O-])Cc1csc(C2CCCCC2)n1` (centres undefined) | 18.38 |
| 22 | `O=C(NCCc1cnccn1)c1ccc(S(=O)(=O)NC2CCC2)cc1` | -14.21 |
| 23 | `CC(NCCNS(=O)(=O)c1cccc(Cl)c1)C1CCOCC1` (centres undefined) | 32.73 |
| 24 | `Cc1ncnc2c1CCN(CC(=O)N(C)C)CC2.O=C(O)C(F)(F)F` | -4.783 |
| 25 | `CC(C)Nc1nc2c(c(NC3CC3)n1)CCN(Cc1nccn1C)CC2.O=C(O)C(F)(F)F` | -16.54 |
| 26 | `CS(=O)(=O)Nc1cccc(CNC(=O)CCc2ccsc2)c1` | -15.02 |
| 27 | `[H][C@@]12CN(Cc3ccc(OC)cc3)C[C@]1([H])OCC(=O)N2CC(N)=O` | -5.153 |
| 28 | `O=C(CNC(=O)c1ccccc1F)NCc1ccccn1` | -11.38 |
| 29 | `Cc1cc(C)n(CC(=O)N(C)Cc2csc(-c3cccs3)n2)c(=O)n1` | -10.37 |
| 30 | `CNc1cc(-c2cc(OC)c(OC)c(OC)c2)ncn1` | 15.16 |
| 31 | `COc1cc(C(=O)NCCS(=O)(=O)N(C)C)c2ccccc2n1` | 9.481 |
| 32 | `CCCn1c(C)c(CC(=O)NCCNC(C)=O)c2c1CC(C)(C)CC2=O` | 5.291 |
| 33 | `[H][C@@]12C[C@H](C(=O)NC(C)C)C[C@@]1([H])OCCN2` | -12.98 |
| 34 | `CN(Cc1cnn(C)c1)CC(O)c1ccc2c(c1)OCO2` (centres undefined) | 10.61 |
| 35 | `Cc1ccc(C(=O)N2CCC3(CC2)CC(N2CCOCC2)C3)cc1.O=C(O)C(F)(F)F` | -9.934 |
| 36 | `CCOCCn1nc(C)cc1C(=O)N1CC(C)(C)[C@@](C)(O)C1` | 14.06 |
| 37 | `O=C(O)C(F)(F)F.O=C(O)C(F)(F)F.[H][C@@]12CCN(Cc3ccccn3)[C@]1([H])CC[C@H](COCC(=O)N(C)C)O2` | -0.6143 |
| 38 | `[H][C@]12CN(Cc3cccnc3OC)CC[C@@]1(O)CCN(C(=O)COC)C2` | -2.458 |
| 39 | `Cc1nc(C)n(CC2CCCCN2CCCN2CCCC2=O)n1` (centres undefined) | -17.9 |
| 40 | `COc1cccc(S(=O)(=O)N2C[C@@H](O)[C@H](N(C)C)C2)c1` | -2.101 |
| 41 | `O=C(c1ccc(C2CCCN2)s1)N1CCN(C(=O)N2CCOCC2)CC1` (centres undefined) | 0.8691 |
| 42 | `Cc1[nH]/c(=N\C(=O)c2csc(NC3CC3)n2)sc1C` | 53.16 |
| 43 | `Cc1csc(CNC(=O)N2CCN(Cc3cc(C)on3)CC2)n1` | -20.07 |
| 44 | `CC1=CCN(S(=O)(=O)c2cccc(C(=O)N3CCCN(C)CC3)c2)CC1` | 17.78 |
| 45 | `O=C(Cc1cccc(F)c1)NCCNCc1ccco1` | -12.63 |
| 46 | `Cc1cc(C)n(CC(=O)NC(Cc2ccsc2)c2ccccn2)c(=O)n1.Cl` (centres undefined) | -2.673 |
| 47 | `CC1COCCN1Cc1noc(C(C)(C)C)n1` (centres undefined) | -29.7 |
| 48 | `CN(CCCNC(=O)Nc1ccc(C#N)cc1)CC(F)(F)F` | 0.5 |
| 49 | `O=C(NCc1cc2n(n1)CCCNC2)C1(c2ccc(Cl)cc2)CCC1` | -0.3427 |
| 50 | `O=C(NC1CCCN(CCc2ccccc2)C1)c1ccccn1` (centres undefined) | 35.43 |
| 51 | `O=C(O)C(F)(F)F.[H][C@@]12CN(C(=O)c3cccs3)C[C@]1([H])OCCN2CC1CCCO1` (some centres undefined) | -27.33 |
| 52 | `CC1CCc2nc(O)c(C(=O)NCc3ccccc3F)cc2C1` (centres undefined) | -27.15 |
| 53 | `Cc1nc(Oc2ccccc2F)sc1C(=O)O` | -22.06 |
| 54 | `O=C(NC1CCCN(CCCc2ccccc2)C1)c1ccncc1` (centres undefined) | 40.41 |
| 55 | `Cc1ccccc1-n1ccnc1S(=O)(=O)Cc1nsc(N(C)C)n1` | -0.3577 |
| 56 | `CCOC(=O)c1ccc(CNC(=O)c2ccon2)o1` | -9.186 |
| 57 | `CC(C)N(C)[C@@H]1CCN(c2ncccn2)[C@H]1Cc1ccncc1.O=C(O)C(F)(F)F.O=C(O)C(F)(F)F` | 7.885 |
| 58 | `CCOC(=O)C1CCN(Cc2csc(-c3ccc(C)o3)n2)CC1` | -2.584 |
| 59 | `CCCNC(=O)CCNC(=O)Cc1nc(-c2ccco2)oc1C` | 21.39 |
| 60 | `COc1cccc(CCNC(=O)CN2CCN(C)CC2C)c1` (centres undefined) | 21.17 |
| 61 | `Cc1nn(C)c(N2CCCN(C)CC2)c1CNC(=O)CCC(C)C` | -19.4 |
| 62 | `O=C(C1CC1)N1CCC(c2nc(O)c3c(n2)CN(C2CCCC2)CC3)C1` (centres undefined) | -29.92 |
| 63 | `O=C(Nc1ccccn1)C1=NN(c2ccccc2)C(=O)CN1` | -26.47 |
| 64 | `Cc1noc(CN(C)Cc2cnc(N3CCOCC3)nc2)n1` | 7.297 |
| 65 | `CCN(CC(=O)NC)C(=O)Cc1csc(C(C)C)n1` | -34.51 |
| 66 | `O=C(O)C(F)(F)F.O=C(O)C(F)(F)F.[H][C@@]12CCN(c3nncs3)C[C@@]1([H])O[C@@H](C(=O)Nc1cccnc1)C2` | 16.68 |
| 67 | `Cl.Cn1nc(C2CCCN(Cc3cc(F)cc(F)c3)C2)c2nccnc21` (centres undefined) | -38.19 |
| 68 | `CN(C)CCN(Cc1ccccn1)Cc1ccnn1C1CCCCO1.O=C(O)CC(O)(CC(=O)O)C(=O)O` (centres undefined) | 16.63 |
| 69 | `Cc1oc(-c2cccc(F)c2F)nc1CN(C)CCO` | 28.85 |

Repeated from the top, 9 entries:

structure	effect
Cc1ccc(N2CC[C@H](OCC3CC3)[C@@H]2Cc2ccncc2)nn1	-8.88
COc1cccc2c1ccn2CCC(=O)Nc1c2c(nn1C)CSC2	21.24
COc1cc2c(cc1CNC(=O)C(C)n1ccnc1C(C)C)OCCO2 (centres undefined)	-18.47
O=C(NCCN1CCCCC1)c1ccoc1	-8.814
Cc1ccc(C)c(C(NC2CCCC2)c2cccnc2)c1 (centres undefined)	7.804
O=S(=O)(NCCCn1cncn1)c1ccc2c(c1)OCCO2	-20.65
c1cnn(CC2CN(c3ncnc4[nH]ccc34)CCO2)c1 (centres undefined)	-12.65
Cc1cccc(C(=O)N2CC(Cc3nccc4ccn(C)c34)C2)n1	-11.23
Cc1nc(N2CCN(C(=O)NCc3cscn3)CC2)sc1C	11.02

The values are deposited in ChEMBL (CHEMBL3988442, “University of Dundee, Small-Polar-MMV Screening Library” (2021)).